For the assay, the target named is E3 ubiquitin ligase RNF20 (human) (UniProt Q5VTR2). In words: co-immunoprecipitation (figure legend only; no method described).

Chains of the proteins cited; added tags and fusions are not shown.
UniProt Q5VTR2: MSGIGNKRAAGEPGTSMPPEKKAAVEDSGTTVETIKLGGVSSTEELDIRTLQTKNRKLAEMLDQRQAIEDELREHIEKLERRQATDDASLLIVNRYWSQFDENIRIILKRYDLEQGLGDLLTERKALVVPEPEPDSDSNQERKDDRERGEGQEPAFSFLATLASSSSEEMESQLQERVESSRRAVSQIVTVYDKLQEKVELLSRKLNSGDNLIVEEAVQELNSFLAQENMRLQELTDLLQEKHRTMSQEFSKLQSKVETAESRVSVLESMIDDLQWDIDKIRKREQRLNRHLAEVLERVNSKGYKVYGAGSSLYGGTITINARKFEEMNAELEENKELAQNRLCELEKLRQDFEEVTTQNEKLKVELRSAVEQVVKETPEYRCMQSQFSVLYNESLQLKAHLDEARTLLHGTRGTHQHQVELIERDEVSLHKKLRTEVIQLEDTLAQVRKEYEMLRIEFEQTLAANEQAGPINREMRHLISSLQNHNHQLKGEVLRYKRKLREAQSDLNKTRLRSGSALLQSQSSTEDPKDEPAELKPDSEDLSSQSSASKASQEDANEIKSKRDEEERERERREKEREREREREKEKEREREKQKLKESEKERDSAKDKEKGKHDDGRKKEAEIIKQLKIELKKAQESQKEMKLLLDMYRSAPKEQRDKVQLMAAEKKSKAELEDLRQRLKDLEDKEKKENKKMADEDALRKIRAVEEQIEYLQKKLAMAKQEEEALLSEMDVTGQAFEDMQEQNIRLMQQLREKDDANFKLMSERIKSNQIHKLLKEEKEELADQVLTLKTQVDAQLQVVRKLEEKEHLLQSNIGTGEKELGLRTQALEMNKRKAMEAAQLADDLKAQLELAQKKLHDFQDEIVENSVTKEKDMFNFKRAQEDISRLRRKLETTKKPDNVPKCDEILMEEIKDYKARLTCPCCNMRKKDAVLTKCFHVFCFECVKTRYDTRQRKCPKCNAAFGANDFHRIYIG

From patent publication US20220306730A1 come the findings set out here.

No constants are given. Whether binding was seen depends on the method and setting. In cells and extracts the contact can be indirect. Some binding calls cover weakened binding; strength is not graded here.

B1: Zinc finger and SCAN domain containing 4 (ZSCAN4) (protein, human, UniProt Q8NAM6 1-433, looked up)
chain: MALDLRTIFQCEPSENNLGSENSAFQQSQGPAVQREEGISEFSRMVLNSFQDSNNSYARQELQRLYRIFHSWLQPEKHSKDEIISLLVLEQFMIGGHCNDKASVKEKWKSSGKNLERFIEDLTDDSINPPALVHVHMQGQEALFSEDMPLRDVIVHLTKQVNAQTTREANMGTPSQTSQDTSLETGQGYEDEQDGWNSSSKTTRVNENITNQGNQIVSLIIIQEENGPRPEEGGVSSDNPYNSKRAELVTARSQEGSINGITFQGVPMVMGAGCISQPEQSSPESALTHQSNEGNSTCEVHQKGSHGVQKSYKCEECPKVFKYLCHLLAHQRRHRNERPFVCPECQKGFFQISDLRVHQIIHTGKKPFTCSMCKKSFSHKTNLRSHERIHTGEKPYTCPFCKTSYRQSSTYHRHMRTHEKITLPSVPSTPEAS
B1: the binding entry is given as “binds”.
